The numbers were not newly measured in PMC7961214 (Advanced Pharmaceutical Bulletin, 2020), which cites them from elsewhere.

The structures appear in SMILES notation.

The conditions of the series: cited from earlier work.

For `COc1cc(/C=C/C(=O)CC(=O)/C=C/c2ccc(O)c(OC)c2)ccc1O` [Curcumin particles, Curcumin], the “solubility in DMSO” value (no reference given) is reported as 11 mg/mL. Also, the solubility in water (pH 7.4 ref 12) is 0.0004 mg/mL.
